The results are deposited in PubChem (AID2283600; EPA ToxCast, 2025).

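HCT-116 human colon cancer cells from a p53 beta-lactamase reporter screen, with cell viability read as a luminescence signal; the exposure time is not given here.
The test concentration is not given here.
AC50 is the concentration producing half of the fitted maximal change in viability; a lower value means a more potent effect.
The call comes from the fitted curve's hit score: 0.9 or higher is active, from 0 up to 0.9 is inactive, and a negative score, meaning a response in the unintended direction, is inconclusive.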

Values are in nM.
Every entry below has the call inconclusive.
Only part of the assay is shown, chiefly results filed as inconclusive.
Activity scores are not listed here.
An entry listed twice with the same setting is a separate test.

Compound | AC50 (nM)
O=C(Cl)c1ccc(C(=O)Cl)cc1 | 46084
O=c1c(O)c(-c2ccc(O)cc2O)oc2cc(O)cc(O)c12 | 43801
COCC(=O)N(c1c(C)cccc1C)N1CCOC1=O | 46082
Nc1cccc2ccccc12 | 46082
CC1(C)S[C@@H]2[C@H](NC(=O)COc3ccccc3)C(=O)N2[C@H]1C(=O)O | 1238
CC(C)c1ccc(C(C)C)cc1 | 82580
CCC(C)CO (stereo unspecified) | 46083
O=c1c(O)c(-c2ccc(O)c(O)c2)oc2cc(O)cc(O)c12 | 46414
O=C(O)c1ccccc1-n1cc(C(=O)O)c(=O)c2cc(Nc3c(F)cc(F)cc3Cl)c(Cl)cc21 | 46082
CC(C)CCCCCCCOC(=O)c1ccccc1C(=O)OCCCCCCCC(C)C | 46149
O=c1c(O)c(-c2ccc(O)c(O)c2)oc2cc(O)cc(O)c12 | 23041
CO[C@@H]1[C@H](OC(=O)NC(=O)CCl)CC[C@]2(CO2)[C@H]1[C@@]1(C)O[C@@H]1CC=C(C)C | 14231
CC(C)CCCCCCOC(=O)c1ccccc1C(=O)OCCCCCCC(C)C | 249.5
COC(=O)C(C)Oc1ccc(Oc2ccc(Cl)cc2Cl)cc1 (stereo unspecified) | 46082
C=CC(C)(CCC=C(C)C)OC(=O)C(C)C (stereo unspecified) | 46083
Nc1ccc(S(=O)(=O)Nc2nccs2)cc1 | 11838
CN(C)CCO | 43047
Nc1ccc(Br)cc1 | 46018
CN(C)CCC=C1c2ccccc2CCc2ccccc21 | 617.8
CCCCC(CC)COC(=O)c1c(Br)c(Br)c(Br)c(Br)c1C(=O)OCC(CC)CCCC (stereo unspecified) | 33871
COc1ccc(C=O)cc1OC | 46497
Nc1ccc(S(=O)(=O)Nc2nccs2)cc1 | 23041
CN(C)CCC=C1c2ccccc2CCc2ccccc21 | 347.5
Nc1cccc2ccccc12 | 46313
Nc1ccc(N=Nc2ccccc2)c(N)n1 | 23041
O=C(O)CC(O)(CC(=O)O)C(=O)O | 914.8
C1COCCN1 | 46083
O=C(O)CC(O)(CC(=O)O)C(=O)O | 46082
CCC(C)c1nccnc1OC (stereo unspecified) | 46059
O=c1ccc2ccccc2o1 | 23041
Cc1cc(Cl)ccc1OC(C)C(=O)O (stereo unspecified) | 45442
CN(C)CCC=C1c2ccccc2CCc2ccccc21 | 124.8
CCCCCCOC(=O)C(C)CC (stereo unspecified) | 46084
CCOC(=O)Cc1cccc2ccccc12 | 46082
CC(C)c1ccc(C=O)cc1 | 6.426
CCN(Cc1cccc(S(=O)(=O)O)c1)c1ccc(C(=C2C=CC(=[N+](CC)Cc3cccc(S(=O)(=O)[O-])c3)C=C2)c2ccccc2)cc1 | 34331
O=C(Cl)c1ccc(C(=O)Cl)cc1 | 46200
CCCCCOC(=O)c1ccccc1C(=O)OCCCCC | 13943
CN(C)CCC#N | 46082
CN(C)CCO | 46082
CCCCCOC(=O)c1ccccc1C(=O)OCCCCC | 4168
O=C(O)CC(O)(CC(=O)O)C(=O)O | 23041
Nc1ccc(Cl)c(Cl)c1 | 46082
CC1(C)S[C@@H]2[C@H](NC(=O)COc3ccccc3)C(=O)N2[C@H]1C(=O)O | 46083
Nc1ccc(Cl)c(Cl)c1 | 46972

The first 5 entries again:

Compound	AC50 (nM)
O=C(Cl)c1ccc(C(=O)Cl)cc1	46084
O=c1c(O)c(-c2ccc(O)cc2O)oc2cc(O)cc(O)c12	43801
COCC(=O)N(c1c(C)cccc1C)N1CCOC1=O	46082
Nc1cccc2ccccc12	46082
CC1(C)S[C@@H]2[C@H](NC(=O)COc3ccccc3)C(=O)N2[C@H]1C(=O)O	1238